Measured values taken from article PMC9894554.
No constants are given. Whether binding was seen depends on the method and setting. In cells and extracts the contact can be indirect. Some binding calls cover weakened binding; strength is not graded here.

Amino acid sequences for entries named in this document (tags omitted). Residues count along the entry.
UniProt Q7TFA0, residues 16-39: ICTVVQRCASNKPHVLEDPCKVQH

Biological target: T1, interleukin 17 receptor A (human (endogenous in THP-1)) (UniProt Q96F46)
T1 sequence: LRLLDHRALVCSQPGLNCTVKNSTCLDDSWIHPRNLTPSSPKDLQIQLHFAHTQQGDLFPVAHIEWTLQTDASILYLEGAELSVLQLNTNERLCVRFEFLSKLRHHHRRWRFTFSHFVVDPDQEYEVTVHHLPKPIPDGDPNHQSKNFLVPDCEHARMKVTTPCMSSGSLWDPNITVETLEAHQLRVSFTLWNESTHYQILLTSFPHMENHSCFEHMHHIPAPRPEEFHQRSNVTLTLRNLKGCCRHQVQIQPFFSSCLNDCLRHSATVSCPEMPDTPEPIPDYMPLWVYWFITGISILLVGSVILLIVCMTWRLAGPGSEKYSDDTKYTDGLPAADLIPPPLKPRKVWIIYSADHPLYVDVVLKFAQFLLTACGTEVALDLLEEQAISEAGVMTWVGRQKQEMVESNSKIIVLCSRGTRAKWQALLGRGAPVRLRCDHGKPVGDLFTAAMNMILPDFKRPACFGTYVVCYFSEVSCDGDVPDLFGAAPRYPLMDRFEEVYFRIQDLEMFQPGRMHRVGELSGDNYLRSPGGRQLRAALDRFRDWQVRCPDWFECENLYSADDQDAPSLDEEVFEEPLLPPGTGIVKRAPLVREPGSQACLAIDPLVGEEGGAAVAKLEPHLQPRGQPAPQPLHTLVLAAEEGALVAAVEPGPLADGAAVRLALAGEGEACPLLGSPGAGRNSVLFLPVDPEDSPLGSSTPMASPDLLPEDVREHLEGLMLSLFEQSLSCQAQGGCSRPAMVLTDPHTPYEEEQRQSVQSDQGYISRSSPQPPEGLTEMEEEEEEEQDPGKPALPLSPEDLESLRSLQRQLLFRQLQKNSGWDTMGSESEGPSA
Test: co-IP; only the binder purified

## Flag-tagged SARS-CoV ORF8a secreted by transfected Calu-3 cells (from UniProt Q7TFA0 16-39)
  binding: binds
